This note sets out measurements from article doi:10.1101/870899.

Protein sequences, listed by entry. Tags and fused reporters are not part of them. Residues count along the entry.
UniProt P17427, residues 701-938: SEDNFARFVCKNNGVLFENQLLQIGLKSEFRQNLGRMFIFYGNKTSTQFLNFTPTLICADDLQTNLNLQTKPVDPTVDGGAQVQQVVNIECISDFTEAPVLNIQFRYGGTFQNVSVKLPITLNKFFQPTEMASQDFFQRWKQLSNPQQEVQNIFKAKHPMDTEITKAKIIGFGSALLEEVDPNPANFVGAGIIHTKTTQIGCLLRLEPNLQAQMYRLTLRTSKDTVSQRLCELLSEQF
UniProt P62944, residues 701-937: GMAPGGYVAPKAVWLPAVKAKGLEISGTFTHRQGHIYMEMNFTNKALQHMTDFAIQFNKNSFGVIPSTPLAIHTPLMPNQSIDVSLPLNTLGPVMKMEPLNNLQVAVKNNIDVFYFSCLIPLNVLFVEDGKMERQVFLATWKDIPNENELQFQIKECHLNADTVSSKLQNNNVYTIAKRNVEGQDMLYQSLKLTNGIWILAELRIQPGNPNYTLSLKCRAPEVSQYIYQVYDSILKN

What all share (assay): pull-down
Assay [1] addresses GST-mouse αC appendage (701-938) (mouse) (UniProt P17427).
The target of assay [2] is GST-rat β2 appendage (701-937) (rat) (UniProt P62944).
Assay [3] has as its target GST-mouse αC appendage (701-938) (mouse) (UniProt P17427). This is another data set of the same source.

Where two headings read alike, the source gives them in different places. No constants are given. Whether binding was seen depends on the method and setting. Binding seen in cells or lysates may run through a third protein. Some results given as binding are weak or reduced against the parent protein; the word gives no strength. For some of these results: Where a sequence is shown, tags or fusion partners need not be part of it.

“BMP2KΔCT-GFP (BMP2K 1-560) (from UniProt Q9NSY1 1-560) (domain or fragment)”: in assay [1], the binding entry is “no binding”.
For the molecule “BMP-2 inducible kinase (BMP2K), endogenous (from UniProt Q9NSY1 1-1161) (enzyme)”, the binding result in assay [2] and in assay [1] was “binds” each time.

B1: BMP2KCT-GFP (BMP2K 561-1161) (domain or fragment, UniProt Q9NSY1 561-1161)
chain: SPEYLTSPQEFSPALVSYTSSLPAQVGTIMDSSYSANRSVADKEAIANFTNQKNISNPPDMSGWNPFGEDNFSKLTEEELLDREFDLLRSNRLEERASSDKNVDSLSAPHNHPPEDPFGSVPFISHSGSPEKKAEHSSINQENGTANPIKNGKTSPASKDQRTGKKTSVQGQVQKGNDESESDFESDPPSPKSSEEEEQDDEEVLQGEQGDFNDDDTEPENLGHRPLLMDSEDEEEEEKHSSDSDYEQAKAKYSDMSSVYRDRSGSGPTQDLNTILLTSAQLSSDVAVETPKQEFDVFGAVPFFAVRAQQPQQEKNEKNLPQHRFPAAGLEQEEFDVFTKAPFSKKVNVQECHAVGPEAHTIPGYPKSVDVFGSTPFQPFLTSTSKSESNEDLFGLVPFDEITGSQQQKVKQRSLQKLSSRQRRTKQDMSKSNGKRHHGTPTSTKKTLKPTYRTPERARRHKKVGRRDSQSSNEFLTISDSKENISVALTDGKDRGNVLQPEESLLDPFGAKPFHSPDLSWHPPHQGLSDIRADHNTVLPGRPRQNSLHGSFHSADVLKMDDFGAVPFTELVVQSITPHQSQQSQPVELDPFGAAPFPSKQ
B1: the binding entry in assay [3] was “binds”.
